Measurements from article PMC3225811.
Results are given in words; binding and its absence hold for the method and conditions named. Binding seen in cells or lysates may run through a third protein. Some entries that bind do so weakly or less than the wild type.

Amino acid sequences for entries named in this document (tags omitted).
UniProt Q61656: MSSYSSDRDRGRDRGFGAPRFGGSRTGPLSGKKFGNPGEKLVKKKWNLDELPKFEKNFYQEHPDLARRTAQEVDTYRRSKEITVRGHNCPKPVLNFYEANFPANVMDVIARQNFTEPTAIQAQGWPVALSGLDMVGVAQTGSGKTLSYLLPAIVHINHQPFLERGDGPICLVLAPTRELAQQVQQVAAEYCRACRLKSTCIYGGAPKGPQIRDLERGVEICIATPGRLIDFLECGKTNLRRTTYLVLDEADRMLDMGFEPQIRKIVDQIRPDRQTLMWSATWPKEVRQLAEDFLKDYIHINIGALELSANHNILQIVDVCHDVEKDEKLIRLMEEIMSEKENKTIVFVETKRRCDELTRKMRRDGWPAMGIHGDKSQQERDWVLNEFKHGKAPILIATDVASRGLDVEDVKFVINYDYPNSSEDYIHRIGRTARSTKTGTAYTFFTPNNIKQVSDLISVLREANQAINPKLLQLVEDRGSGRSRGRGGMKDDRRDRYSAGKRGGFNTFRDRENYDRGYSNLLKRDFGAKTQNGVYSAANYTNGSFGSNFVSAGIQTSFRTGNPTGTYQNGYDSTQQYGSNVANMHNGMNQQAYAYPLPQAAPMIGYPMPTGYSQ
UniProt Q501J6: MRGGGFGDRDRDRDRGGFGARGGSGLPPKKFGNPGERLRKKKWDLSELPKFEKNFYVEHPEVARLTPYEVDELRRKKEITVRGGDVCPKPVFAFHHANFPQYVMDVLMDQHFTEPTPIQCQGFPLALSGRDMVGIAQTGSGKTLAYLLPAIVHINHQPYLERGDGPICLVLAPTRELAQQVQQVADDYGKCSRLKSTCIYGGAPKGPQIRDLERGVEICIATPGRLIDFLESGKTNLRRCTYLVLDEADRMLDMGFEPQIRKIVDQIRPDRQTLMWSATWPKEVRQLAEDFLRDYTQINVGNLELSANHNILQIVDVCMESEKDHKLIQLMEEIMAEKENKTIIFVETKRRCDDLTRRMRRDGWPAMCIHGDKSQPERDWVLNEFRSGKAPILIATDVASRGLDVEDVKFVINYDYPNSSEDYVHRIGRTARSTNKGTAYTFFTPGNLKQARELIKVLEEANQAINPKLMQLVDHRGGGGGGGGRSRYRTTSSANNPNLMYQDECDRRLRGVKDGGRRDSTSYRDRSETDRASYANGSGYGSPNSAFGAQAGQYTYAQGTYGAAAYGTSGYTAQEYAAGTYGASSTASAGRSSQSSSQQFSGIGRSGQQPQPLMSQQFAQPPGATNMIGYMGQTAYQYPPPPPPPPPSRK
UniProt O70133: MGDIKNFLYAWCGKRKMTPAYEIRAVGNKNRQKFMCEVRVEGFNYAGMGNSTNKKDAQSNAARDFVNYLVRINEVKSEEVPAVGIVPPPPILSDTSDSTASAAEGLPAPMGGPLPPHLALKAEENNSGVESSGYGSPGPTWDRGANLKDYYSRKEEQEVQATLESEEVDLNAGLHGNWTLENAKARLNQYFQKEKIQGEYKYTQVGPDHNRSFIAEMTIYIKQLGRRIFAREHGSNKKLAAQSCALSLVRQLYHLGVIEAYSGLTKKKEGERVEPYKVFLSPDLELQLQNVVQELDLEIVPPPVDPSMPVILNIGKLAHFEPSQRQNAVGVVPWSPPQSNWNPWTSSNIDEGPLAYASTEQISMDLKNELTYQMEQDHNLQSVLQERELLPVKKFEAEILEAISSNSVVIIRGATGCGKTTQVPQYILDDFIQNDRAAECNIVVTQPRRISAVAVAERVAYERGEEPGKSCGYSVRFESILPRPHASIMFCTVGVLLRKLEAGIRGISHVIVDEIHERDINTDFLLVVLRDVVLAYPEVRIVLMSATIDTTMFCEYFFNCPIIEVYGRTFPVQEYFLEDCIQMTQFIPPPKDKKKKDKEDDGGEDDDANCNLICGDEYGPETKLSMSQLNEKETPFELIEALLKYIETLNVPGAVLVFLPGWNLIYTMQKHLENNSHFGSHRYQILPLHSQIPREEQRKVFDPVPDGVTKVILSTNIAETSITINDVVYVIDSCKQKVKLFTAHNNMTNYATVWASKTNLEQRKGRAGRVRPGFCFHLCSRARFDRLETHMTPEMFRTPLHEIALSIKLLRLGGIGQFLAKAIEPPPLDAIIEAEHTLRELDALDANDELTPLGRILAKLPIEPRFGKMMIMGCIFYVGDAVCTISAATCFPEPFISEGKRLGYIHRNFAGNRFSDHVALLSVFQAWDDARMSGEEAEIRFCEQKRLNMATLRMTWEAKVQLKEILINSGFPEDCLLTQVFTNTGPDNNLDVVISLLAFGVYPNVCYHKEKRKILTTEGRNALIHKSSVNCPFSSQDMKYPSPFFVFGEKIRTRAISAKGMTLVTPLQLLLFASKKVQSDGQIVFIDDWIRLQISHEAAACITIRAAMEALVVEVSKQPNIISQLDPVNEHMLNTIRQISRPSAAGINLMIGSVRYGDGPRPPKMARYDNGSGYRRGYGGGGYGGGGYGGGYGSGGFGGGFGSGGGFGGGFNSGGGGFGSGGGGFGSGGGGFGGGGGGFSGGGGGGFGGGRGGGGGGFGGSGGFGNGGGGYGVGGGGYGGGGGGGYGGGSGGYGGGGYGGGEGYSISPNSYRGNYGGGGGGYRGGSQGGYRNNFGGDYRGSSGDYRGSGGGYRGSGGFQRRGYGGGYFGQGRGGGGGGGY

Columns and labels:
[1] = biological target: p68 (Ddx5), endogenous in mouse liver (mouse (endogenous in liver)) (UniProt Q61656); test: co-IP; endogenous proteins; mouse liver lysate in buffer B, incubated with RNase A; 2 mg lysate with 3 ug p68 or p72 antibody and protein G sepharose; immunoblot for Dhx9
[2] = biological target: p72 (Ddx17), endogenous in mouse liver (mouse (endogenous in liver)) (UniProt Q501J6); test: as above

- binding [1]: binds
- binding [2]: binds
Substance: RNA helicase A (Dhx9), endogenous in mouse liver (from UniProt O70133 1-1380)
